# Test results as given in patent US5741516A, “Sphingosomes for enhanced drug delivery” (priority 1995, dated 1998).
# Like-named read-outs stand apart in the source and are kept apart here.
# Tests used:
# [1] = 15 mg/kg
# [2] = i.v.
# [3] = i.v.; remark: listed apart in the source
# [4] = i.v.; remark: listed apart in the source
# [5] = i.v.; remark: listed apart in the source
compound,measurement,setting,value
"O=C(O)c1cn(C2CC2)c2cc(N3CCNCC3)c(F)cc2c1=O [Free cipro, ciprofloxacin]",Plasma ciprofloxacin,"[1]; i.p., 0.25 hrs",0.43 ± 0.01 μg/100 μl plasma
same,Plasma ciprofloxacin,"[1]; i.p., 0.50 hrs",0.18 ± 0.09 μg/100 μl plasma
same,Plasma ciprofloxacin,"[1]; i.p., 1.00 hrs",0.07 ± 0.05 μg/100 μl plasma
same,Plasma ciprofloxacin,"[1]; i.p., 4.00 hrs",0.06 ± 0.007 μg/100 μl plasma
same,"plasma ciprofloxacin levels, i.v. vs i.p. (in words)",[1]; i.v. or i.p.,no difference was observed
same,Plasma ciprofloxacin,"[1]; i.v., 0.25 hrs",0.35 ± 0.005 μg/100 μl plasma
same,Plasma ciprofloxacin,"[1]; i.v., 0.50 hrs",0.20 ± 0.03 μg/100 μl plasma
same,Plasma ciprofloxacin,"[1]; i.v., 1.00 hrs",0.11 ± 0.02 μg/100 μl plasma
same,Plasma ciprofloxacin,"[1]; i.v., 4.00 hrs",0.05 ± 0.001 μg/100 μl plasma
same,Plasma ciprofloxacin,"[1]; i.v., 6.00 hrs",0.03 ± 0.001 μg/100 μl plasma
same,Ciprofloxacin level in plasma,[2]; 0.0833 hrs,0.5996 ± 0.0135 μg cipro/100 μL plasma
same,Ciprofloxacin level in plasma,[2]; 0.25 hrs,0.4096 ± 0.0308 μg cipro/100 μL plasma
same,Ciprofloxacin level in plasma,[2]; 0.5 hrs,0.2720 ± 0.0323 μg cipro/100 μL plasma
same,Ciprofloxacin level in plasma,[2]; 1 hrs,0.1324 ± 0.0008 μg cipro/100 μL plasma
same,Ciprofloxacin accumulation in the lung,"[3]; 5 min, 15 mg/kg",10.3 ± 0.09 μg cipro/g tissue
same,Ciprofloxacin accumulation in the lung,[3]; 0.25 h,6.29 ± 0.22 μg cipro/g tissue
same,Ciprofloxacin accumulation in the lung,"[3]; 0.5 h, 15 mg/kg",3.12 ± 0.35 μg cipro/g tissue
same,Ciprofloxacin accumulation in the lung,"[3]; 1 h, 15 mg/kg",2.07 ± 0.29 μg cipro/g tissue
same,Ciprofloxacin accumulation in the spleen,"[4]; 0.0833 hrs, 15 mg/kg",16.10 ± 0.191 μg cipro/g tissue
same,Ciprofloxacin accumulation in the spleen,[4]; 0.25 hrs,9.43 ± 0.76 μg cipro/g tissue
same,Ciprofloxacin accumulation in the spleen,"[4]; 0.5 hrs, 15 mg/kg",5.48 ± 0.294 μg cipro/g tissue
same,Ciprofloxacin accumulation in the spleen,"[4]; 1 hrs, 15 mg/kg",3.49 ± 0.271 μg cipro/g tissue
same,Ciprofloxacin accumulation in the kidney,"[5]; 0.0833 hrs, 15 mg/kg",23.5 ± 2.55 μg cipro/g tissue
same,Ciprofloxacin accumulation in the kidney,[5]; 0.25 hrs,13.5 ± 1.47 μg cipro/g tissue
same,Ciprofloxacin accumulation in the kidney,"[5]; 0.5 hrs, 15 mg/kg",8.85 ± 1.37 μg cipro/g tissue
same,Ciprofloxacin accumulation in the kidney,"[5]; 1 hrs, 15 mg/kg",3.53 ± 0.25 μg cipro/g tissue
